Laboratory results published in patent US20200206183A1, “SYSTEMS, METHODS, AND FORMULATIONS FOR TREATING CANCER” (Research Cancer Institute of America, priority 2011, published 2020).
At least one compound was matched to its structure with a doubt left.

Test system: cancer cells
Assay: 3 bromopyruvate as glycolytic inhibitor for use in the present invention

## O=C(O)C(=O)CBr [3 bromopyruvate]
  Effectiveness for use in the present invention: not found effective
